# Results as given in PubChem BioAssay (NCATS).
# Amino acid sequences for entries named in this document (tags omitted). A change or cut given only in a name is not applied to a line headed by its entry.
# UniProt Q9Y253: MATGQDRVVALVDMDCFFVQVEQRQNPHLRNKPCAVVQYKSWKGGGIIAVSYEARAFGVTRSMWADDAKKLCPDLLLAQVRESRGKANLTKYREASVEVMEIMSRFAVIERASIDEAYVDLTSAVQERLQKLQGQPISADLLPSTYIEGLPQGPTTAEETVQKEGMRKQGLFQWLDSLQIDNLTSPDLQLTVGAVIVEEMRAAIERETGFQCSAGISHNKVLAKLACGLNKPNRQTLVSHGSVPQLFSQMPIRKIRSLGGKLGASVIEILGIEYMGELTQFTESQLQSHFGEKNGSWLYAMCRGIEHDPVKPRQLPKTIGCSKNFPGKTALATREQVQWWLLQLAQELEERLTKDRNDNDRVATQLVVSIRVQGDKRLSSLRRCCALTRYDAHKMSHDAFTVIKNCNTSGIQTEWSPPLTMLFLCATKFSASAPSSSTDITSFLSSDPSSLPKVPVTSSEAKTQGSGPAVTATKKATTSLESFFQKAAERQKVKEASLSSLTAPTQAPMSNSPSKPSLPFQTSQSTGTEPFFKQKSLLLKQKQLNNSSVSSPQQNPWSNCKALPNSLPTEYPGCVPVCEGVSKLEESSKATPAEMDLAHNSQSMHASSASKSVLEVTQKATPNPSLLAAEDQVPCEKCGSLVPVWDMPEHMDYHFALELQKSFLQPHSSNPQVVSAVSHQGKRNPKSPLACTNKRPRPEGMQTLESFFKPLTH
# UniProt Q9UNA4: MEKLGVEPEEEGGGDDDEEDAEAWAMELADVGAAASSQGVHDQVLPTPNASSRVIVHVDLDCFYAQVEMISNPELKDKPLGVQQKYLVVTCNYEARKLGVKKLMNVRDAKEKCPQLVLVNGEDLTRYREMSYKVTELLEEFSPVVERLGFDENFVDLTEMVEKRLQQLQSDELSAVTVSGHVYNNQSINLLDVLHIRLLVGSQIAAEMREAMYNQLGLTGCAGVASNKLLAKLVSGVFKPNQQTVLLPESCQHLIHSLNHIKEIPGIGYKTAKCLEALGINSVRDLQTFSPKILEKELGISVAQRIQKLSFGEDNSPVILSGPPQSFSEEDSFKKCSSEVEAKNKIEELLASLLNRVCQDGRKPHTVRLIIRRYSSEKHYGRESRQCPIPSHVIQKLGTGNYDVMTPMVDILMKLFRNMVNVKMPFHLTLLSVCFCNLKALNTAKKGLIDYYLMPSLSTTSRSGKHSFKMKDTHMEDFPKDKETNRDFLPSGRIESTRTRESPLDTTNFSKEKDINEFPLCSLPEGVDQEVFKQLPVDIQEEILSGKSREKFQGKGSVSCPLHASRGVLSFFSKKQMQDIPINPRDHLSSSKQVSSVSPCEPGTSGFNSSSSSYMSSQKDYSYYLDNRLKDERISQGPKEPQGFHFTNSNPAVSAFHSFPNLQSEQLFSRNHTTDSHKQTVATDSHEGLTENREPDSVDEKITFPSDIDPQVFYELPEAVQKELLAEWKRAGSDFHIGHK
# UniProt Q14191, whole entry, looked up: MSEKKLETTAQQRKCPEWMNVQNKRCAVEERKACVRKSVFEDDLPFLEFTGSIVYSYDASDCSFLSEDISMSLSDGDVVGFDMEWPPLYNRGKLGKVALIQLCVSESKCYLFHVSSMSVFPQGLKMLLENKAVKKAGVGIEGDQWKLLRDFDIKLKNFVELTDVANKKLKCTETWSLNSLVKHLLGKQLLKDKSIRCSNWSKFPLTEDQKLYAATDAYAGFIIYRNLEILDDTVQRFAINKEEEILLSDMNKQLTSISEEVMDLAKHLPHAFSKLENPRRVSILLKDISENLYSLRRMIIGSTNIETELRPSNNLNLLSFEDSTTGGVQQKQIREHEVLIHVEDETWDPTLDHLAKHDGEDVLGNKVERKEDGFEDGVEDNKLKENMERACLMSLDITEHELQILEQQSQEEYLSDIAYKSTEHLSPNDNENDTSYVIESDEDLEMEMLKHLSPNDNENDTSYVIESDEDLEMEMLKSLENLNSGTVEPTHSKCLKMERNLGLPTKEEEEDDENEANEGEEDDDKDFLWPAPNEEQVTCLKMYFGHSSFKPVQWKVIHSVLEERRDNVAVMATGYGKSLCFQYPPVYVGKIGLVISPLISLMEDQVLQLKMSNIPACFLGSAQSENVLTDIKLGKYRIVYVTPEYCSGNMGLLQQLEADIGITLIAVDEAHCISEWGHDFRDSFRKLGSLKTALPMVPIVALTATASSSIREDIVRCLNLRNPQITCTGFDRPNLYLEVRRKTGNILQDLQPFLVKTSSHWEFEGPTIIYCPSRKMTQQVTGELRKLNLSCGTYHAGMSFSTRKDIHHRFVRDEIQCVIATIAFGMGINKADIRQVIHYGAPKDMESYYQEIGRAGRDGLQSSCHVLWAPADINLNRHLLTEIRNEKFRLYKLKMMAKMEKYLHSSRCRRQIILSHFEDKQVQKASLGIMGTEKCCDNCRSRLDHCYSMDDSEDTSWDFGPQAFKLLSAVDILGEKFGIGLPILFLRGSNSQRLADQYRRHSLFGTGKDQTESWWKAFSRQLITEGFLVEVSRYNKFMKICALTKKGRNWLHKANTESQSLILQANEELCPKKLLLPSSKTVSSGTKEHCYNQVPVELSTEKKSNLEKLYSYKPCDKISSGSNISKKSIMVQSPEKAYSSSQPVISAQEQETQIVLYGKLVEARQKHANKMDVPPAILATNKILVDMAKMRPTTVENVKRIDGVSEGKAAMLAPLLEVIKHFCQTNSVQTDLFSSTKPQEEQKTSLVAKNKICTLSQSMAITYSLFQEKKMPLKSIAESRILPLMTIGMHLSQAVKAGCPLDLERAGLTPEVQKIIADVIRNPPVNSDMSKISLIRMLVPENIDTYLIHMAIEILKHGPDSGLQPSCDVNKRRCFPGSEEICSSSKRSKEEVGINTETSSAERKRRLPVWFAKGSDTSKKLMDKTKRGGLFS
# UniProt Q99816: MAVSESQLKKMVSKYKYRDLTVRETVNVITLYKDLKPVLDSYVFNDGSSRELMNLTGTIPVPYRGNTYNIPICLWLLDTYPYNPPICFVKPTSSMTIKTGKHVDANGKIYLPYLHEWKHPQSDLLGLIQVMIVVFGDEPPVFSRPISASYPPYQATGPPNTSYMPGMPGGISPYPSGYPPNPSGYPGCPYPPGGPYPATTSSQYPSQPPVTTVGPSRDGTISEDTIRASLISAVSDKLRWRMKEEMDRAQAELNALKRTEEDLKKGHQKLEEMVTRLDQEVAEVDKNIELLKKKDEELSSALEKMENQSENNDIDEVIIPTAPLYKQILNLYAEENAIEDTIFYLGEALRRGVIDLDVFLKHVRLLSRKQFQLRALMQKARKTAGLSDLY
# UniProt Q9UBT6: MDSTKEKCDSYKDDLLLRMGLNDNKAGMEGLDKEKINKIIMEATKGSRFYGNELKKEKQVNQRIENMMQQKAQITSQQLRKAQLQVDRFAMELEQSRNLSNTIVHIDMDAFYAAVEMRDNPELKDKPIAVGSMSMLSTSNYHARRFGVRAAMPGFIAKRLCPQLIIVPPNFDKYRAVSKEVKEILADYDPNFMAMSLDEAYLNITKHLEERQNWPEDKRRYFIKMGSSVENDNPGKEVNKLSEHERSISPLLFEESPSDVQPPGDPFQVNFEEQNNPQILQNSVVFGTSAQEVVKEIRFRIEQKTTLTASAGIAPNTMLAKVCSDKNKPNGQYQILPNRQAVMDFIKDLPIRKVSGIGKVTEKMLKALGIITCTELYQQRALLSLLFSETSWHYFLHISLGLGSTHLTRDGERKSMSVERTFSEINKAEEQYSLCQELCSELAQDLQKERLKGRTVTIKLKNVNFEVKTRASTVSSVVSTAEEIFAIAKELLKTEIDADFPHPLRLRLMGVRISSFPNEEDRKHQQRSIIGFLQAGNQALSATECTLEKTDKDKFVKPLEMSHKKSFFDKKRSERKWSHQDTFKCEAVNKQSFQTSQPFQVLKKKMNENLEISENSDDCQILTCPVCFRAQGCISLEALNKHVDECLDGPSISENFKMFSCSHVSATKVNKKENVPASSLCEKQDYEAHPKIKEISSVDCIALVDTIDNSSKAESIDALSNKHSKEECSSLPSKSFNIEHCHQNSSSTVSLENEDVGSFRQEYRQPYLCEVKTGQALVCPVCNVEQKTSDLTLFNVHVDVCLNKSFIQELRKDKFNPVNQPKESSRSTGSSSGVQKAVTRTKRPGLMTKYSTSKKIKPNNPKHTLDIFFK
# The inconclusive results got no clear call from the source; some entries with a clear call stand among them for comparison. For some assays here: Potencies beside an inconclusive call are fits to weak or partial responses and may not hold up. Active and inactive are the calls of the source. Calls come from the whole dose curve; as a rule, active = well fitted curve in the direction sought with a large enough effect; inconclusive = small, poorly fitted or top-dose-only effect, or another doubt; inactive = no such curve, though single readings can be large; an effect the other way counts as inactive or inconclusive.
# How the values were obtained:
# [1] = qHTS Assay for the Inhibitors of L3MBTL1: Hit Validationin AlphaScreen Counterscreen (AID 602224)
# Summary of the method: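 Compounds incubated with biotinylated hexahistidine peptide for 15 min at room temperature; donor/acceptor AlphaScreen beads then added (10 ug/mL each, 1 nM b-His6 final) and luminescence read after 30 min in the dark.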
# [2] = biological target: DNA polymerase eta (Homo sapiens) (UniProt Q9Y253); assay: qHTS for Inhibitors of Polymerase Eta: Confirmatory Assay for Cherry-picked Compounds (AID 720502); conditions: Pol eta primer extension, TAMRA/BHQ fluorescence, 10 min; note: potency is the fitted concentration of half-maximal effect
# Summary of the method: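 Pol eta 10 nM; substrate 50 nM final (unlabeled primer, TAMRA reporter, BHQ-2 template); preincub. 15 min RT; reads t=0 and t=10 min at ex525/em598.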
# [3] = biological target: Rap guanine nucleotide exchange factor 3 (Homo sapiens) (UniProt O95398); assay: Confirmatory qHTS for antagonist of cAMP-regulated guanine nucleotide exchange factor 3 (EPAC1) (AID 1645880); conditions: EPAC1 Rap1B-BODIPY-GDP exchange, fluorescence; activity, negative = inhibition: at 115 µM (top of the series); note: nearly all actives have a fitted effect of over 55% in size; note: potency is the fitted concentration of half-maximal effect;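 for activity, negative = inhibition: plate controls were DMSO only for no effect and full effect of the ATA control for full effect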
# Summary of the method: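 Nucleotide exchange uses 100 nM EPAC1, 250 nM RAP1B-BODIPY-GDP and 50 uM GDP, with compounds in a concentration-titration series. After 5 min at room temperature, fluorescence (480 nm ex/540 nm em) is read every 5 min for 30 min. Data are normalized to control ATA and DMSO.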
# [4] = biological target: Rap guanine nucleotide exchange factor 3 (Homo sapiens) (UniProt O95398); assay: Counterscreen qHTS for agonist of cAMP-regulated guanine nucleotide exchange factor 3 (EPAC1) (AID 1645889); conditions: EPAC1 Rap1B-BODIPY-GDP exchange, fluorescence; activation: at 154 µM (top of the series) unless noted; note: nearly all actives have a fitted effect of over 40% in size; note: potency is the fitted concentration of half-maximal effect; for activation: % of control where 0% means no effect
# Summary of the method: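 Measured: fluorescence of BODIPY-GDP bound to Rap1B, which falls as exchange proceeds. Conditions include 50 uM competing GDP, 5 and 30 min reads, and a later cAMP challenge for antagonist detection.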
# [5] = biological target: DNA polymerase iota (Homo sapiens) (UniProt Q9UNA4); assay: qHTS for Inhibitors of Polymerase Iota: Confirmatory Assay for Cherry-picked Compounds (AID 720496); conditions: Pol iota primer extension, TAMRA/BHQ fluorescence; note: potency is the fitted concentration of half-maximal effect
# Summary of the method: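 Recombinant human Pol iota (10 nM) was preincubated with compound for 15 min at room temperature, then 50 nM final primer/template substrate was added; the substrate carried a TAMRA-labeled reporter strand and a BHQ-2-quenched template. Fluorescence was read at 0 and 10 min.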
# [6] = biological target: Bifunctional 3'-5' exonuclease/ATP-dependent helicase WRN (Homo sapiens) (UniProt Q14191); assay: qHTS for Inhibitors of WRN Helicase: Confirmatory Assay for Cherry-picked Compounds. (AID 720497); note: potency is the fitted concentration of half-maximal effect; nearly all actives have a fitted effect of over 65% in size
# Summary of the method: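 Compound and 20 nM WRN incubated 15 min, RT. Forked duplex (100 nM) plus ATP (2 mM) added. Fluorescence monitored kinetically and normalized to controls.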
# [7] = biological target: Tumor susceptibility gene 101 protein (Homo sapiens) (UniProt Q99816); assay: qHTS Assay for Iinhibitors of HIV-1 Budding by Blocking the Interaction of PTAP/TSG101: Hit Validation (AID 651600); note: % is set by controls: 0 for no effect and ±100 for the full control effect; nearly all actives have a fitted effect of over 70% in size
# Summary of the method: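 Measuring PTAP–Tsg101 interaction by FP: protein at 10 uM and fluorescent peptide at 50 nM (final), buffer 10 mM HEPES pH 7.5 with 0.15 M NaCl, 3 mM EDTA, 0.1 mM TCEP, 0.01% Tween 20; 20 min incubation, r.t.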
# [8] = biological target: DNA polymerase kappa (Homo sapiens) (UniProt Q9UBT6); assay: qHTS for Inhibitors of Polymerase Kappa: Confirmatory Assay for Cherry-picked Compounds (AID 720501); conditions: purified Pol-kappa, fluorescent strand-displacement substrate; note: potency is the fitted concentration of half-maximal effect
# Summary of the method: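 Human Pol-kappa, dispensed at 10 nM, was preincubated with compounds for 15 min at room temperature. Reactions were started with primer/template substrate (50 nM final) carrying a TAMRA reporter strand and BHQ-2-quenched template, and fluorescence (ex 525/em 598 nm) was read at 0 and 10 min.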
structure (smiles),measurement,setting,value
CN(CCC#N)C(=O)COC(=O)c1c2c(nc3ccccc13)/C(=C/c1ccco1)CC2,Potency,[1],"inconclusive: 37.7 µM [inhibitor, partial curve, poor fit]"
same,Potency,[2],active: 53.6 µM
same,Potency,[3],active: 3.55 µM
same,Potency,[4],"inconclusive: 11.2 µM [activator, partial curve, poor fit]"
O=C1c2ccccc2C(=O)C12OC2c1cccc2ccccc12 (stereo not given),Potency,[5],"inconclusive: 84.4 µM [inhibitor, single point]"
same,Potency,[3],"inconclusive: 33.8 µM [inhibitor, full curve]"
same,Potency,[4],"inconclusive: 17.8 µM [activator, partial curve, poor fit]"
O=[N+]([O-])c1cc2ccccc2c(O)c1O,Potency,[6],active: 12.1 µM
same,Potency,[3],active: 31.6 µM
same,Potency,[4],"inconclusive: 20 µM [activator, partial curve, poor fit]"
COc1ccc(N=Nc2nc3cc(Br)c(Br)cc3n2C)c(OC)c1,Potency,[7],inactive
same,Potency,[3],inactive
same,Potency,[4],active: 12.6 µM
O=C1C=C(Nc2cccc3cccnc23)c2ccccc2C1=O,Potency,[5],"inconclusive: 84.4 µM [inhibitor, partial curve]"
same,Potency,[2],"inconclusive: 95.3 µM [inhibitor, single point]"
same,Potency,[3],"inconclusive: 95.3 µM [inhibitor, single point]"
same,Potency,[4],"inconclusive: 17.8 µM [activator, full curve, poor fit]"
O=C1NC(=Nc2ccccc2Cl)S/C1=C\c1cc([N+](=O)[O-])ccc1O,Potency,[8],"inconclusive: 42.3 µM [inhibitor, partial curve]"
same,Potency,[3],active: 53.6 µM
same,activation,[4],inconclusive: 30.8% [activator]

# Taken from the results shown for reference:
structure (smiles),measurement,setting,value
O=C1NC(=Nc2ccccc2Cl)S/C1=C\c1cc([N+](=O)[O-])ccc1O,Potency,[8],"inconclusive: 42.3 µM [inhibitor, partial curve]"
same,Potency,[3],active: 53.6 µM
